Each structure is given as a SMILES string. The list shows a part of the results. These are further read-outs of the screen, such as a control signal, another cell line or another target. No call is given for them. The list favours compounds with an active or inconclusive main result. The note in brackets gives the kind of curve behind each potency; many fits are weak.

A short description of this test: qHTS Assay for Lipid Storage Modulators in Drosophila S3 Cells.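 On cell number change: cells counted by Cell Tracker Red CMTPX staining in the red channel.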 Particulars: BODIPY lipid droplet fluorescence, 18-24 h; for cell number change: measured here: cell count max response, cells fed with added oleic acid. In outline:
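Drosophila S3 cells loaded with oleic acid (400 uM, as added) and compounds at several concentrations; lipid droplets imaged by 488-nm laser-scanning cytometry, 500–530 nm intensity and object ratio to cell channel. Percent activity normalized to 20 uM Triacsin C.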
(qHTS replaces the single test concentration by a dilution series.)

Where [1] appears, read: measured here: cell number channel AC50, cells fed with added oleic acid.
Setting [2] is: measured here: lipid fluorescence (Fed channel) AC50, cells fed with added oleic acid.

As for `Fc1ccccc1N1CCN(c2ncnc3nc[nH]c23)CC1`, the cell number change turned out to be 32.7%. Besides, under setting [1], the concentration at half-maximal activity (AC50) – broadly, the concentration at which the activity in the assay is half-maximal – was 0.164 µM [rising, full curve, poor fit]. Moreover, the AC50 under setting [2] was 2.06 µM [rising, full curve].

As for `Fc1ccccc1CNc1ccc(Cl)c(Cl)c1`, the cell number change is -19.1%. For the same compound, the AC50 under setting [2] was 6.51 µM [rising, partial curve, poor fit].

As to `COc1ccc(C(C)(C)C)cc1NC(=O)COC(=O)c1nc2nccc(C)n2n1`, the cell number change turned out to be 15%. For the same compound, the AC50 under setting [2] was 16.4 µM [rising, single point].

As to `COc1ccc(CNC(=O)COC(=O)c2ccc(OCC3CCCO3)cc2)cc1` (stereo not drawn), the cell number change was -18.7%. For the same compound, the AC50 under setting [2] is 0.0461 µM [falling, full curve].

In the case of `CC(C)(C)c1ccc(/C([O-])=C(/C(=S)NCc2ccco2)[n+]2ccccc2)cc1`, the AC50 is, setting by setting: under setting [1], 0.366 µM [falling, full curve]; under setting [2], 6.51 µM [falling, partial curve].

For `CCN(Cc1ccncc1)Cc1ccc(OC)cc1OC`, the cell number change turned out to be 9.82%. Further, under setting [2], the AC50 was 6.51 µM [rising, partial curve].

For `CCOC(=O)c1cc2c(=O)n3ccccc3nc2n(CC(C)C)c1=NC(=O)c1ccco1`, the AC50 under setting [1] is 0.259 µM [rising, full curve, poor fit].

For `CSc1ncccc1C(=O)N1CCCC(C(=O)c2ccc3ccccc3c2)C1` (stereo not drawn), the cell number change was -17.2%. In addition, under setting [2], the AC50 was 18.4 µM [falling, partial curve, poor fit].

For `CC(C)C(=O)Nc1ccc(NC(=O)c2ccco2)cn1`, the cell number change is -7.07%. Moreover, the AC50 under setting [2] was 0.164 µM [falling, full curve, poor fit].

For `Cc1cc(Sc2nnc(/N=C/N(C)C)s2)c2ccccc2n1`, the cell number change was -18.6%. The half-maximal activity concentration (AC50) under setting [2] was 29.1 µM [falling, partial curve, poor fit].

With `COc1ccc2c(c1)CCCN2C(N)=O`, the cell number change is -13.2%. Moreover, the concentration at half-maximal activity (AC50) under setting [2] was 20.6 µM [falling, single point].

On to `COc1ccc(NC(=O)c2sc3nc(-c4cccnc4)ccc3c2N)cc1`, for which the cell number change was 10.4%.

`CCN1C(=O)c2cccc3c(S(=O)(=O)Nc4ccncc4)ccc1c23`: the cell number change was -59.7%. The half-maximal activity concentration (AC50) under setting [1] was 16.4 µM [falling, single point].

As for `COc1ccc(NC(=O)c2ccc3ccccc3n2)cc1S(=O)(=O)N1CCCCC1`, the cell number change was 15.6%. Further, under setting [2], the AC50 was 0.517 µM [falling, single point].

Take `COc1ccc(NC(=O)c2ccc3c(=O)n(-c4ccc(OC)cc4OC)c(=S)[nH]c3c2)cc1`: the cell number change is -24.3%. Under setting [2], the AC50 is 32.6 µM [falling, partial curve, poor fit].

Consider `O=C(NC1CC2CCCC(C1)N2Cc1cccs1)N1CCOCC1` (stereo not drawn), for which the cell number change worked out at 11.5%. Besides, under setting [1], the half-maximal activity concentration (AC50) was 3.66 µM [falling, single point].

Consider `CCCOc1ccc2oc(=O)c3c(c2c1)CCCN3C(=O)CN(C)Cc1ccccc1`, for which the cell number change came out at 0.209%. The AC50 under setting [2] was 2.91 µM [rising, single point].
